Measured values from publication PMC9496951.
Results are given in words; binding and its absence hold for the method and conditions named. In cells and extracts the contact can be indirect. These calls come from enrichment with a bait or labelling near it, and not all partners need be listed.

Chains of the proteins cited; added tags and fusions are not shown. Residues count along the entry.
UniProt P04114, residues 28-4563: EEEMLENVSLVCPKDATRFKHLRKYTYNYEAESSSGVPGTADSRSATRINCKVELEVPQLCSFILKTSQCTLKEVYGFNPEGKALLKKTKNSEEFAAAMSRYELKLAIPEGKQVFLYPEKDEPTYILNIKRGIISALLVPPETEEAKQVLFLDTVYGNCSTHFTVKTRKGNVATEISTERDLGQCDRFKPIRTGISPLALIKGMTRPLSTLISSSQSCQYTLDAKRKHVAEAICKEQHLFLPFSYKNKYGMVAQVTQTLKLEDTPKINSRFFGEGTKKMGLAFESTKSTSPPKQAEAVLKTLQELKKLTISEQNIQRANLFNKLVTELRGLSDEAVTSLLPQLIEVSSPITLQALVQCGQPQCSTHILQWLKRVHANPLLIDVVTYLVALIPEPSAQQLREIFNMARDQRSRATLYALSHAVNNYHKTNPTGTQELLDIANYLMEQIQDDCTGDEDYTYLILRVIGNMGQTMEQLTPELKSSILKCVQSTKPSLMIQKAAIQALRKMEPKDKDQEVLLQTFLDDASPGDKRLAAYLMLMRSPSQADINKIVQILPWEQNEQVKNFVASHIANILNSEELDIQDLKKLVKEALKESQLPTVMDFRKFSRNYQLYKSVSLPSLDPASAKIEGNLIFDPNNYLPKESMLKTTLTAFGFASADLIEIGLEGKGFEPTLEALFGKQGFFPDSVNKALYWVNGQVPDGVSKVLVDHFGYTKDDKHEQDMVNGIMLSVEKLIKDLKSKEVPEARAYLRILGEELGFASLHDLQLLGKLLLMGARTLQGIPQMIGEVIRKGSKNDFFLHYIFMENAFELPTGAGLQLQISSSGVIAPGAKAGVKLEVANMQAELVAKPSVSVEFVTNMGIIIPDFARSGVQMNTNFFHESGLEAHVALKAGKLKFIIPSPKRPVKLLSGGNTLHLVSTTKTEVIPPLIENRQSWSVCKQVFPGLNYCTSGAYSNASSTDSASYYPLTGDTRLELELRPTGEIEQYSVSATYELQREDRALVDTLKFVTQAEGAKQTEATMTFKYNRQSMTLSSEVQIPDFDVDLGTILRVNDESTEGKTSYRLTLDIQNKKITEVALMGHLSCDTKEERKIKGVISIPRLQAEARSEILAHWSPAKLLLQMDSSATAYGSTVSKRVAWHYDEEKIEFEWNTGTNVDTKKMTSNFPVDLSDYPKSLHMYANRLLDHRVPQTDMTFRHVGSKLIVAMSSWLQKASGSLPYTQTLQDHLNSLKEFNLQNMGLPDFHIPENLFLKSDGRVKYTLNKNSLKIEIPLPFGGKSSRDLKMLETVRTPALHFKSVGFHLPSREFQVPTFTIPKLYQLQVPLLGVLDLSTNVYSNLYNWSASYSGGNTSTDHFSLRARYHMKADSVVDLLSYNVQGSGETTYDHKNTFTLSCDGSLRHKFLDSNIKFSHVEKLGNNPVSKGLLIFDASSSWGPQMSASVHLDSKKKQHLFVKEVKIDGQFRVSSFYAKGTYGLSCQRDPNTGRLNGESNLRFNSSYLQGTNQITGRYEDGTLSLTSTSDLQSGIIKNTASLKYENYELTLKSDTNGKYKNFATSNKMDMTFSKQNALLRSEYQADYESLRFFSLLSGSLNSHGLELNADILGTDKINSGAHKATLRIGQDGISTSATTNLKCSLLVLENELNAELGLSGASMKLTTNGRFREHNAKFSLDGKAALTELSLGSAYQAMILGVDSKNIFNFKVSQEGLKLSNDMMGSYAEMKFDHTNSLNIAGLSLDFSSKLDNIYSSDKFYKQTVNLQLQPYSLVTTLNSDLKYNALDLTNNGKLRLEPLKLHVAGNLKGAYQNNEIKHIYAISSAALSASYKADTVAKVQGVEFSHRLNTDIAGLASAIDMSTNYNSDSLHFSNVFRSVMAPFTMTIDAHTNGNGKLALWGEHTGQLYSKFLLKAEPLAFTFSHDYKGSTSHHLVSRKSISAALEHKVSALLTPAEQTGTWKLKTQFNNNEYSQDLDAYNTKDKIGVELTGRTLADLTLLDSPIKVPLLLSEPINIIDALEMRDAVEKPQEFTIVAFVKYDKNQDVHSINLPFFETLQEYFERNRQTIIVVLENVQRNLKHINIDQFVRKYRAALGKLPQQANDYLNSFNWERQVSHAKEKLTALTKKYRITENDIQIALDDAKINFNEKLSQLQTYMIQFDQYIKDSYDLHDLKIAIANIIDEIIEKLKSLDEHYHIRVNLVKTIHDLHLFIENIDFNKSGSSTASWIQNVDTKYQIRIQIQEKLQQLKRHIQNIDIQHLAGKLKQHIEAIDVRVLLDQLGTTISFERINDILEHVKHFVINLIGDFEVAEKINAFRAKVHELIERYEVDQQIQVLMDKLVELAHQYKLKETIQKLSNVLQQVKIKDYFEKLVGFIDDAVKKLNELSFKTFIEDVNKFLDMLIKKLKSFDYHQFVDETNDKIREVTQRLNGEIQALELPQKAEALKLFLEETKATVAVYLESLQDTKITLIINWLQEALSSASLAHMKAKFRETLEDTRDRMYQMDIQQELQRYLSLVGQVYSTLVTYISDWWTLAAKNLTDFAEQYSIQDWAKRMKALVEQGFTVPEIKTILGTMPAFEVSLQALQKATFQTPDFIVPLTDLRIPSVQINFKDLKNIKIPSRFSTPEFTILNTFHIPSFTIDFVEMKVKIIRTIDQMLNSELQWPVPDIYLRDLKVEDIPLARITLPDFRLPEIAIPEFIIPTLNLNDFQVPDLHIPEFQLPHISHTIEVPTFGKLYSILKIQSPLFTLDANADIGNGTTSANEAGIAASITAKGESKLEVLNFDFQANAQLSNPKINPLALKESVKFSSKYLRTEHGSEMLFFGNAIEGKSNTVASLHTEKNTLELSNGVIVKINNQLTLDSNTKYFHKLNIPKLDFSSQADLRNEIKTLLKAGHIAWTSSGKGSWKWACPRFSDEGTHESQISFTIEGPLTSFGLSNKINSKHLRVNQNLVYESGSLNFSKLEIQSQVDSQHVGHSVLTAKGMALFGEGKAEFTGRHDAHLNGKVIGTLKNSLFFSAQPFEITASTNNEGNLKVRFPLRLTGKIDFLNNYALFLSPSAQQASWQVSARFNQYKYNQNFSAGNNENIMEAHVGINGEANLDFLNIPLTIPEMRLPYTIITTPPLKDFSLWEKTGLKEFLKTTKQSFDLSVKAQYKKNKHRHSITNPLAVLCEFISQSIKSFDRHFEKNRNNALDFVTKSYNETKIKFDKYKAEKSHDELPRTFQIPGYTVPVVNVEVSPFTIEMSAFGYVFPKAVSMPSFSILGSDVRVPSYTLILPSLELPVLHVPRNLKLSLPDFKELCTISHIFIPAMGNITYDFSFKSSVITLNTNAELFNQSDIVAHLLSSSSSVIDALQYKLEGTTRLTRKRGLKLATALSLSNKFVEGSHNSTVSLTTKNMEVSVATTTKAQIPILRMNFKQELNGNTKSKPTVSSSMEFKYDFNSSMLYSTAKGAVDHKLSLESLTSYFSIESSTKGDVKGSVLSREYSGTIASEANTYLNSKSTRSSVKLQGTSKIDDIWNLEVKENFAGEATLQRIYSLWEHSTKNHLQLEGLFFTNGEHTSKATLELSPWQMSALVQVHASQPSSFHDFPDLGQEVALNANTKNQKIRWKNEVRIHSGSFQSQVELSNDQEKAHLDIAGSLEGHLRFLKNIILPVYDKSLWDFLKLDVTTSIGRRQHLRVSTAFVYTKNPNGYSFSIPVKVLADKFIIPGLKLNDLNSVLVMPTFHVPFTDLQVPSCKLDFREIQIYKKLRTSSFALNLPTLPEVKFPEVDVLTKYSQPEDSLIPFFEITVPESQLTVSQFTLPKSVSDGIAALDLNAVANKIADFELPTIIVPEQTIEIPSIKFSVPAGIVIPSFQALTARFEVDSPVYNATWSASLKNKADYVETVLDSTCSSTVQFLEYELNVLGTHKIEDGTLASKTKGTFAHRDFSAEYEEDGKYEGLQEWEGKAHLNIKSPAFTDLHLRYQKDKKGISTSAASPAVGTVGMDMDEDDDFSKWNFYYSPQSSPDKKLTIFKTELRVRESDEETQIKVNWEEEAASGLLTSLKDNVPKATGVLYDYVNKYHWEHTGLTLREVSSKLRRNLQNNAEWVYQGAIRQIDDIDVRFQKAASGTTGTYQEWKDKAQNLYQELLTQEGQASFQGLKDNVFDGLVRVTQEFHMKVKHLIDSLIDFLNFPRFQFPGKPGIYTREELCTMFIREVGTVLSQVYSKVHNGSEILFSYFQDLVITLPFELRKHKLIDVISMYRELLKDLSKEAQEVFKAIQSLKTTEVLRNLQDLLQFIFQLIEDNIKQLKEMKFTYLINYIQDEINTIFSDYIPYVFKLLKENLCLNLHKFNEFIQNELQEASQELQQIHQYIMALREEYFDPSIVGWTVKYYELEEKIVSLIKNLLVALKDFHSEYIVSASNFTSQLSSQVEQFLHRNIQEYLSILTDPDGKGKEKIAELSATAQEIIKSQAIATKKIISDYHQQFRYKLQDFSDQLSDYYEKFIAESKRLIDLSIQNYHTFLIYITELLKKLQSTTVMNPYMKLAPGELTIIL

Target: Heat shock protein (Hsp) 90 (human (endogenous in THP-1)) (UniProt P07900)
Assay: affinity purification with mass spectrometry; co-IP with anti-Hsp90 antibody from lysate of ATRA-stimulated THP-1 cells; SDS-PAGE, Coomassie; five main bands excised, trypsin digested and identified by LC-MS/MS

“apoprotein B (from UniProt P04114 28-4563)” was tested, and the binding was “binds”.
